Results as given in patent publication US6716596B2, “Agents for replacement of NAD+/NADH system in enzymatic reactions” (The Regents of the University of California, priority 2001, dated 2004).
Structures can show the parent of a compound that is named as a salt. Some entries share one result that the patent states for a list of compounds. At least one structure is not confirmed: it was looked up by name or label, or the drawing left a doubt.

The chains behind the UniProt entries cited, without tags or fusion partners. Residues count along the entry.
UniProt P00327, 2-375 limits assumed: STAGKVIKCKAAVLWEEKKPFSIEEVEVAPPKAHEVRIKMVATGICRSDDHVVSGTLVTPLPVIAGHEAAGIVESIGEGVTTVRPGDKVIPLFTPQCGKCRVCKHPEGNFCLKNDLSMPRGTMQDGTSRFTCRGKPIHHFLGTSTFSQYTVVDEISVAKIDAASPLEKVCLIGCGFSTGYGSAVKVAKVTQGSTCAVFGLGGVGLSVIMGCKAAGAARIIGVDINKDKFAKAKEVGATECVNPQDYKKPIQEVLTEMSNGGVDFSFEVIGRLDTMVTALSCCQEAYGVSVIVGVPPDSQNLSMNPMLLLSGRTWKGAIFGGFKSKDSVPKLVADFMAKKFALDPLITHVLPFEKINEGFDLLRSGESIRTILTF

Target: T1, horse liver alcohol dehydrogenase (HLADH) (Equus caballus, UniProt P00327)
T1 construct: purchased Sigma
Experiment: HLADH enzymatic chiral reduction of ketones with biomimic co-factor regeneration
Assay type: biochemical
Details: for enantiomeric excess of alcohol (19), S-enantiomer: ketone (12) reduced by HLADH with co-factor regeneration, 24 hours; for enantiomeric excess of chiral alcohols, S enantiomer: ketones such as phenethylmethyl ketone and benzylmethyl ketone, reduced biomimic recognized by HLADH
Method: FIG. 7 presents structures of ketone substrates 12-15 used for biomimic chiral synthesis of corresponding alcohols. Conversion of the substrates 12-15 to their corresponding alcohols are expressed in % yield, and TOF in d^−1 and S-enantiomer excess (ee) are also shown for each conversion. Corresponding values obtained with NAD^+ are given in parenthesis. The S-enantiomeric excess (ee) was determined by GLC with a modified β-cyclodextrin capillary column.
[Cp*Rh(bpy)(H2O)]OTf2 (1.9 mg, 2.61×10^−3 mmol), sodium formate (17.8 mg, 261.69×10^−3 mmol), NAD^+ (8.1 mg, 11.23×10^−3 mmol) and HLADH (10 units) were placed in a 10 mL Schlenk flask, and Schlenk techniques were followed to deoxygenate the solid mixture.
Under positive argon pressure, 5 mL of potassium phosphate buffer (100 mM, pH=7.02, deoxygenated) and carbonyl substrate (83.58×10^−3 mmol, deoxygenated) were added via syringe. The reaction flask was immediately securely capped with a glass-stopper and shaken with a shaker in 30° C. water-bath. The reaction was monitored by gas chromatography (GC), equipped with a β-cyclodextrin column (Supelco, β-DEX-225), and the products were identified by comparing the retention time with the corresponding authentic chiral samples and were confirmed by GC-MS. The enantiomeric excess of the products was determined directly by their relative area in the chromatogram. The progress of the reaction was obtained by mixing the reaction aliquot with an internal standard (cyclohexanol in phosphate buffer), and then calibrating the measured relative area in the chromatogram with their corresponding response factors. The reaction was monitored for 24 hours.
The same procedure as described in section A was followed, except that NAD^+ was substituted with any one of the biomimic compounds of the invention.

| Compound | enantiomeric excess of alcohol (19), S-enantiomer [% ee] | enantiomeric excess of chiral alcohols, S enantiomer [% ee] |
| --- | --- | --- |
| NC(=O)c1ccc[n+](Cc2ccccc2)c1 [Compound 1a, 1-Benzylnicotinamide, Triflate Salt] | > 93 |  |
| NC(=O)C1=CN(Cc2ccccc2)C=CC1 [Compound 3, 1-benzyl-1,4-dihydronicotinamide] |  | > 93 |
| COP(=O)([O-])OC[C@H]1O[C@@H]([n+]2cccc(C(N)=O)c2)[C@H](O)[C@@H]1O [Compound 6, β-nicotinamide ribose-5′-methyl phosphate] | > 93 |  |
| COP(=O)(O)OC[C@H]1O[C@@H](N2C=CCC(C(N)=O)=C2)[C@H](O)[C@@H]1O [Compound 7, β-1,4-dihydronicotinamide ribose-5′-methyl phosphate] |  | > 93 |
| NC(=O)C1=CN([C@@H]2O[C@H](COP(=O)(O)OP(=O)(O)OC[C@H]3O[C@@H](n4cnc5c(N)ncnc54)[C@H](O)[C@@H]3O)[C@@H](O)[C@H]2O)C=CC1 [NAD^+, β-Nicotinamide adenine dinucleotide, reference compound] | > 93 |  |
